# Reference: patent publication US7368279B2, “Three dimensional bioengineered smooth muscle tissue and sphincters and methods therefor” (The Regents of The University of Michigan, priority 2004, dated 2008)
# Entries after “also recorded” stand apart in the source; their conditions may differ. For at least one compound, name, drawing or mass did not settle the structure.
# How the values were obtained:
# [1] = tested on: bioengineered IAS rings; assay: Isometric force of bioengineered IAS rings from adult, old and phosphomimic-HSP27 transfected old rat cells; assay type: cell-based
# Procedure: To measure the passive baseline force, the differentiation media in the plate containing the bioengineered sphincter was replaced with 37° C. Krebs solution (NaCl (119 mM), KCl (4.6 mM), NaHCO3 (15 mM), CaCl2 (1.5 mM), MgCl2 (1.2 mM), […], and glucose (11 mM)) and the plate was placed on a heated aluminum platform, which maintained a temperature of 37° C. until the testing was complete. For contractility measurements, one end of the bioengineered sphincter was anchored by a stainless steel pin (10 mm×0.1 mm diameter) to the PDMS substrate within the plate, while another stainless steel pin was bent in the shape of a hook and attached by canning wax to a force transducer (resolution of 1.4 μN and range of 2mN) as previously described (Dennis et al., In Vitro Cellular & Developmental Biology Animal 36: 327-335, 2000, Macpherson et al., J Physiol 500: 523-533, 1997) and as depicted in FIG. 1 (Panels F and G). The bioengineered sphincter was stretched approximately 50% of its resting length using a three-axis micromanipulator. The ring was allowed to sit for 20 minutes in order to reestablish a stable baseline level of force (Pb), which was measured as the average baseline passive force preceding stimulation. All force measurements were collected at 100 samples/second for 60 seconds and recorded using a computer with LabVIEW data acquisition software (National Instruments, Austin, Tex.). A median filter of rank 2 was applied to all raw force data before being stored to minimize digitization noise without causing a phase delay for rapidly changing forces. The peak isometric force (ΔP) was determined by subtracting the Pb from the total force values. Specific force (sΔP) was calculated by dividing ΔP by the CSA. […] Each measurement was repeated at least three times and the mean value was recorded. […] To test this hypothesis on a physiological level, bioengineered sphincter rings were made from phosphomimic-HSP27 transfected-IAS smooth muscle cells of old rats and the contractile response was assessed.
# [2] = tested on: bioengineered IAS rings; assay: Isometric force (contraction/relaxation) of bioengineered IAS rings; assay type: cell-based, rabbit
# Procedure: Excitability and contractility of bioengineered IAS rings was measured using techniques adapted from previous work (Dennis et al., In Vitro Cellular & Developmental Biology Animal 36: 327-335, 2000. Dennis et al., American Journal of Physiology Cell Physiology 280: C288-C295, 2001). The diameter of the sphincter rings was measured and used to calculate cross-sectional area (CSA). The bioengineered sphincters were separated from their molds using forceps (FIG. 1 Panel E) and the minimum ring diameter was measured using a calibrated eyepiece and a 5× or 10× objective lens on an inverted microscope (Zeiss Axiovert 25, Thornwood, N.Y.). The cross section was circular, and therefore the CSA was calculated using the measured diameter. To measure the passive baseline force, the differentiation media in the plate containing the bioengineered sphincter was replaced with 37° C. Krebs solution (NaCl (119 mM), KCl (4.6 mM), NaHCO3 (15 mM), CaCl2 (1.5 mM), MgCl2 (1.2 mM), […], and glucose (11 mM)) and the plate was placed on a heated aluminum platform, which maintained a temperature of 37° C. until the testing was complete. […] The ring was allowed to sit for 20 minutes in order to reestablish a stable baseline level of force (Pb), which was measured as the average baseline passive force preceding stimulation. All force measurements were collected at 100 samples/second for 60 seconds and recorded using a computer with LabVIEW data acquisition software (National Instruments, Austin, Tex.). […] The peak isometric force (ΔP) was determined by subtracting the Pb from the total force values. Specific force (sΔP) was calculated by dividing ΔP by the CSA. […] Each measurement was repeated at least three times and the mean value was recorded. […]
# [3] = tested on: bioengineered colon smooth muscle rings; assay: Isometric force of bioengineered colon smooth muscle rings; assay type: cell-based, rabbit; details: acetylcholine, sustained for 4 minutes
# Procedure: To develop a three dimensional physiological model of the smooth muscle cells in vitro, isolated colonic smooth muscle cells were used. Smooth muscle cells isolated from the colon of rabbits were seeded in a fibrin-based tissue construct as described in detail in Example 2. In this construct, the smooth muscle cells migrated and self-assembled in circumferential alignment. As the cells proliferated, the fibrin gel shrunk and contracted around a 5 mm diameter SYLGARD mold, resulting in a 3-D cylindrical ring of colonic tissue (smooth muscle ring). […] Maximal ΔP induced by acetylcholine stimulation was 17.8 μN, resulting in a specific force (sΔP) of […].
smiles,measurement,setting,value
CC(=O)OCC[N+](C)(C)C [acetylcholine],time to peak ΔP,"[1]; adult IAS rings, acetylcholine",30 to 60 s
same,time-to-peak force,"[1]; old rings, acetylcholine",5 minutes-1 hour
same,time to maximal ΔP,"[1]; old rings, acetylcholine (usual; in some cases up to 1 hour)",5 to 20 min
same,time to peak ΔP,"[2]; 10^−7 M acetylcholine, Krebs buffer",30 to 60 s
same,time of peak contraction,"[2]; 10^−7 M acetylcholine, Krebs buffer (FIG. 2)",one
same,contraction in absence of calcium,"[2]; acetylcholine, 0 Ca2+/2 mM EGTA Krebs buffer",did not contract; also recorded: no contraction
same,time of calcium-dependent peak contraction,[3],30 s
